At least one peptide structure holds a part that was inferred or is arguable (an end, a ring closure or a residue). Residues, ends and D or L forms follow the SMILES beside them.
Target: Lp(a) formation (coupling between apo(a) and LDL) (Homo sapiens, UniProt P08519)
Experiment: in vitro Lp(a) formation assay: coupling of recombinant human apo(a) with LDL, western blot with densitometry or visual inspection
Format: biochemical
Design: key: An easily detectable change from control was assigned as (+); a marked change from control was assigned as (++)
Conditions: western blots visually inspected, experimental lanes compared to control lanes
Protocol: As pointed out above, the peptides of this invention are useful for treating vascular diseases due to their ability to inhibit formation of Lp(a). The compounds have been evaluated in an in vitro assay which established that the subject compounds are potent inhibitors of Lp(a) formation. The assay was carried out by mixing approximately equal quantities of recombinant human apo(a) with low-density lipoprotein (LDL) in a […] microcentrifuge tube. Control vessels contained no invention peptide, whereas test vessels contained a peptide of Formula I. The mixtures were incubated at 37° C. for 30 minutes. The coupling between apo(a) and LDL was quenched by addition of sodium dodecylsulfate (SDS)-PAGE loading buffer. The mixture is next resolved on 4% polyacrylamide gels, and Lp(a) is detected by western blotting using a monospecific human Lp(a) antibody. The intensity of the Lp(a) bands on the blots is measured by a commercial densitometer. […]
Additional compounds were evaluated in the above assay, and the western blots were visually inspected for changes in Lp(a) particle formation as a consequence of peptide mediated inhibition. Experimental lanes were visually compared to control lanes and assessed as follows: An easily detectable change from control was assigned as (+); a marked change from control was assigned as (++).

Sequences of proteins named here, by UniProt entry; tags and fusion partners are left off. Residues count along the entry.
UniProt P08519, 20-2040: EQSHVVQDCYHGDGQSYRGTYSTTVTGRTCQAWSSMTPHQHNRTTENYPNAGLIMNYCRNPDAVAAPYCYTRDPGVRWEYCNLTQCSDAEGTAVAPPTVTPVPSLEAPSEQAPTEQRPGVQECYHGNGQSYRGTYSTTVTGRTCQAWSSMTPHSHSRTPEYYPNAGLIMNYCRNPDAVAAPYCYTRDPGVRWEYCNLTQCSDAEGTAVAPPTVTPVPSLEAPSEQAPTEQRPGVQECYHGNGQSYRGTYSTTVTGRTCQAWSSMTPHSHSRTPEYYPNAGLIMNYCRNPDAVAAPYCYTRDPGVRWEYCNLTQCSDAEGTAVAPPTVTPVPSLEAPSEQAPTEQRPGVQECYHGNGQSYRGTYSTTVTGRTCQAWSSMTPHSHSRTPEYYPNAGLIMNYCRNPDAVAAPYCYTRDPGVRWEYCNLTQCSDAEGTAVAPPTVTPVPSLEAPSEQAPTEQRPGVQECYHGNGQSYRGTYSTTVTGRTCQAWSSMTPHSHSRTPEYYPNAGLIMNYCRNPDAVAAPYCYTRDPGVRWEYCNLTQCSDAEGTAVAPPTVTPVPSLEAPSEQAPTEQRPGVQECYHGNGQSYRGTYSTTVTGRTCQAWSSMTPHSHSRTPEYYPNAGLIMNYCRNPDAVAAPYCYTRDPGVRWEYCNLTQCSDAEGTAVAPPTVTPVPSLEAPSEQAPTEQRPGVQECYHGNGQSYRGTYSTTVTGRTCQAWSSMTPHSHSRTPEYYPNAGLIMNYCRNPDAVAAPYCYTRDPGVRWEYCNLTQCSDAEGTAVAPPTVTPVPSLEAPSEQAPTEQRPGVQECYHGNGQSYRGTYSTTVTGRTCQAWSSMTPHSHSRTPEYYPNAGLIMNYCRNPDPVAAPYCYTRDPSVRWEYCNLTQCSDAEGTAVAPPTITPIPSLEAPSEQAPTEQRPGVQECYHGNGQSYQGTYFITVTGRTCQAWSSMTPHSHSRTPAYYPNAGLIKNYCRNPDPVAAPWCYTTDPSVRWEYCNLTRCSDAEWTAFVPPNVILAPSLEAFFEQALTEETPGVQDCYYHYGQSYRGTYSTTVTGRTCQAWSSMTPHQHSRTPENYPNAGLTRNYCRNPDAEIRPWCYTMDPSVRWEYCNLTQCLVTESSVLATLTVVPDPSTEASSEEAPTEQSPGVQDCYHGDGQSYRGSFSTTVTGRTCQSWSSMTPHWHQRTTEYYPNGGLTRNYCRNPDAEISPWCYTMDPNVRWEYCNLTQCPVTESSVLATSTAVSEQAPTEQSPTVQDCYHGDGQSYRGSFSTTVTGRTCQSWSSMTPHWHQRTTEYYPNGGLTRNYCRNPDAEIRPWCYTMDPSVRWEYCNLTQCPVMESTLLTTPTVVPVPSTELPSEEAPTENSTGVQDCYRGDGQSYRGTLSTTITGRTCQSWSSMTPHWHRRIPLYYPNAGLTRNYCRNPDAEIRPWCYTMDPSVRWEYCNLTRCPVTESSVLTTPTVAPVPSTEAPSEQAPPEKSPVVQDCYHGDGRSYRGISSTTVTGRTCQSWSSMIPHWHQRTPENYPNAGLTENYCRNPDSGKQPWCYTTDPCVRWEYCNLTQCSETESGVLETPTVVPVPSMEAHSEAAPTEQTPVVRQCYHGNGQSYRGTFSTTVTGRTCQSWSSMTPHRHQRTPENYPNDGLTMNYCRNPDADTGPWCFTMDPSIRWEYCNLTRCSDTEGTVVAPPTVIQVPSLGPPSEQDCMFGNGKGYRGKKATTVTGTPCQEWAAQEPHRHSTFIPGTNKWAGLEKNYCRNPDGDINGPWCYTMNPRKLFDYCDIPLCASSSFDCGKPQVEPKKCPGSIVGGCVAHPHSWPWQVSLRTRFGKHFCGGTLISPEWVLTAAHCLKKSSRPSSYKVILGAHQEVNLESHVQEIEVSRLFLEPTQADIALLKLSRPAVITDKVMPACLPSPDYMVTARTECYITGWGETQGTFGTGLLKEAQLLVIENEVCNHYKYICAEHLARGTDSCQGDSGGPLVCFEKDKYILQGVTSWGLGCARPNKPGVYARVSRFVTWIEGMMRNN

## NCCCC[C@H](NC(=O)[C@H](Cc1ccc(O)cc1)NC(=O)[C@@H](N)CS)C(=O)O [Cys--Tyr--Lys] (H-Cys-Tyr-Lys-OH)
  Relative Activity: +

## NCCCC[C@H](NC(=O)[C@H](Cc1ccc(O)cc1)NC(=O)[C@@H](N)CS)C(N)=O [Cys--Tyr--Lys--NH2, Cys-Tyr-Lys-NH2] (H-Cys-Tyr-Lys-NH2)
  Relative Activity: ++

Reference: patent publication US5786335A, “Sulfhydryl containing peptides for treating vascular disease” (Warner-Lambert Company, priority 1996, dated 1998)
